Structures are written as SMILES. The list shows a part of the results. The main result of the screen is listed elsewhere. These columns were measured beside it and carry no call. Compounds called inactive in the main read-out are mostly missing here. Words in brackets tell the shape of the fitted curve; partial curves, single points and poor fits give uncertain potencies.

We go through 64 compounds from PubChem BioAssay AID2685 (National Center for Advancing Translational Sciences (NCATS), 2010).

The nature of this assay: qHTS Assay for Lipid Storage Modulators in Drosophila S3 Cells.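 On cell number change: cells counted by Cell Tracker Red CMTPX staining in the red channel.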 The conditions noted are these: BODIPY lipid droplet fluorescence, 18-24 h; for cell number change: measured here: cell count max response, cells fed with added oleic acid. The essentials:
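Drosophila S3 cells loaded with oleic acid (400 uM, as added) and compounds at several concentrations; lipid droplets imaged by 488-nm laser-scanning cytometry, 500–530 nm intensity and object ratio to cell channel. Percent activity normalized to 20 uM Triacsin C.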

Where [1] appears, read: measured here: lipid fluorescence (Fed channel) AC50, cells fed with added oleic acid.
Where [2] appears, read: measured here: cell number channel AC50, cells fed with added oleic acid.

For the compound `O=C(CCSCc1ccc(Cl)cc1)NCCc1ccccc1`, the cell number change was -15.7%. Further, the AC50 under setting [1] was 1.84 µM [rising, partial curve, poor fit].

Turning to `Cc1nn(-c2ccccc2)c2c1C1(C(=O)Nc3ccccc31)N1C(=N2)Sc2ccccc21` (stereo unspecified), the cell number change was -24.7%. Besides, the AC50 under setting [1] was 6.51 µM [falling, partial curve].

Consider `CSc1nnc(-c2cccn(Cc3ccccc3)c2=O)o1`, for which the cell number change amounted to 23.1%. The AC50 under setting [1] is 0.58 µM [falling, single point].

On to `CNc1nnc(SCC(=O)c2cc(C)n(C3CC3)c2C)s1`, for which the cell number change is -5.65%. Besides, the AC50 under setting [1] is 0.58 µM [falling, single point].

For `COC(=O)C(O)(CC(=O)Nc1cc(OC)c(OC)c(OC)c1)C(F)(F)F` (stereo unspecified), the cell number change amounted to 10.1%. Under setting [1], the AC50 was 1.03 µM [rising, full curve, poor fit].

In the case of `Cc1cc2occ(CC(=O)NCc3cccs3)c2cc1C(C)C`, the AC50 under setting [1] was 0.651 µM [falling, full curve].

Take `CCOc1ccc(NC(=O)CSc2nc3c([nH]c4ccccc43)c(=O)n2C)cc1`: the cell number change worked out at 9.88%. For the same compound, the AC50 under setting [1] is 0.13 µM [rising, full curve, poor fit].

Turning to `Cc1cc(Br)ccc1NC(=O)CNC(=O)CSc1n[nH]c(N)n1`, the AC50 under setting [2] was 0.651 µM [rising, full curve].

In the case of `Cc1ccccc1C(=O)Nc1ccc(CN2CCOCC2)cc1`, the cell number change was found to be 21.1%.

Consider `COc1cc(OC)nc(NC(=O)CCl)n1`, for which the cell number change came to 3%. Further, the AC50 under setting [1] was 29.1 µM [rising, single point].

For the compound `CCOC(=O)c1c(NC(=O)CCl)sc(CN(C)C)c1-c1ccccc1`, the cell number change was -5.13%.

On to `Cc1c(C(=O)O)oc2ccc(S(=O)(=O)N3CCCCC3C(=O)O)cc12` (stereo unspecified), for which the cell number change amounted to 26.2%. Further, under setting [1], the AC50 was 29.1 µM [rising, single point].

As for `COc1ccc(S(=O)(=O)N2CCOCC2)cc1NC(=O)c1ccncc1`, the cell number change is 0.13%. Besides, the AC50 under setting [1] is 0.00461 µM [falling, full curve, poor fit].

`CCOC(=O)N1CCC(N(CCN(C)C)C(=S)Nc2cc(Cl)ccc2C)CC1`: the cell number change was determined as 21.6%.

In the case of `O=C(Nc1ccc(Cl)cc1C(=O)Nc1ccncc1)c1ccco1`, the cell number change came to 12.3%. For the same compound, the AC50 under setting [2] is 0.517 µM [rising, single point]. Besides, under setting [1], the AC50 is 0.651 µM [rising, full curve].

On to `N#CCCNS(=O)(=O)c1ccc(C(=O)OCC(=O)Nc2ccc3c(c2)OCO3)cc1`, for which the cell number change worked out at 37.3%. Moreover, the AC50 under setting [2] was 14.6 µM [rising, partial curve, poor fit]. Also, under setting [1], the AC50 was 4.11 µM [rising, full curve].

As for `N#CC(c1ccc(=O)[nH]n1)c1ccc(Cl)cc1Cl` (stereo unspecified), the cell number change came out at 5.73%.

For `N#CC(c1ccccc1)(c1ncc(C(F)(F)F)cc1Cl)N1CCOCC1` (stereo unspecified), the cell number change amounted to 10.9%. Further, the AC50 under setting [1] was 0.291 µM [rising, full curve, poor fit].

On to `Cc1ccc(S(=O)(=O)CC(=O)Nc2ccc3nc(C)sc3c2)cc1`, for which the cell number change was -3.95%. For the same compound, the AC50 under setting [1] was 4.61 µM [rising, partial curve].

Take `Cc1ccc(CN2CCN(c3ccccn3)CC2)s1`: the cell number change was 32.7%. Also, the AC50 under setting [2] is 3.26 µM [rising, full curve].

As to `Cc1ccc(S(=O)(=O)CCC(=O)Nc2ccc(Br)cc2)cc1`, the cell number change is -22.5%.

On to `Cc1oc(C)c(C(=O)Nc2ccc(CC(=O)O)cc2)c1C(=O)Nc1ccc(CC(=O)O)cc1`, for which the cell number change was -21.8%. Also, the AC50 under setting [2] is 0.0517 µM [falling, full curve, poor fit]. Also, under setting [1], the AC50 is 0.731 µM [falling, full curve, poor fit].

`NS(=O)(=O)c1ccc(NC(=O)COC(=O)C2CCCCC2)cc1`: the cell number change was -41.2%. The AC50 under setting [2] is 29.1 µM [falling, single point].

On to `Cc1ccc(-c2nn(C)c(=O)c3ccccc23)cc1CNC(=O)CSc1nc2ccccc2o1`, for which the AC50 under setting [1] is 2.06 µM [rising, partial curve, poor fit].

As for `O=C(O)c1cccc(N/N=C/c2sc(N3CCOCC3)nc2-c2ccccc2)c1`, the cell number change was 0.141%.

As for `CCN(CCNC(=O)CCCn1nc(C)n2c(cc3sccc32)c1=O)c1ccccc1`, the cell number change is 30.8%. The AC50 under setting [2] is 20.6 µM [rising, single point]. Moreover, under setting [1], the AC50 is 18.4 µM [rising, single point].

With `COc1ccc(NC(=O)CC(C)n2ccnc2)cc1` (stereo unspecified), under setting [1], the AC50 was 23.1 µM [rising, single point].

With `COc1ccc(C(=O)Oc2ccc3c(C)cc(=O)oc3c2C(C)=O)cc1`, the cell number change was found to be 5.3%.

Consider `Cc1ccc(S(=O)(=O)NCc2ccccc2C)cc1`, for which the cell number change stood at 14.2%.

Turning to `CCOCC(=O)Nc1c(C(=O)Nc2ccc3c(c2)OCCO3)oc2ccccc12`, the cell number change worked out at 23%. In addition, under setting [1], the AC50 is 6.51 µM [rising, single point].

Turning to `O=S1(=O)CCOCCCN1Cc1cccc(F)c1`, the cell number change is 3.89%. Under setting [1], the AC50 is 5.17 µM [rising, full curve].

Turning to `C[C@H]1CN(C2CCCCC2)C(=O)[C@@H]1CC(=O)NCc1ccccc1`, the cell number change was determined as 5.69%. The AC50 under setting [1] is 3.66 µM [rising, full curve].

Regarding `COc1ccc(C2NC(=O)NC3=C2CCc2ccccc23)cc1` (stereo unspecified), the cell number change was 9.63%. Besides, the AC50 under setting [1] is 6.51 µM [rising, single point].

Take `N#CCSc1nnc(Nc2ccccc2)s1`: the cell number change was determined as 39.4%. Also, the AC50 under setting [2] is 0.082 µM [rising, full curve].

As to `CCc1nnc(NC(=O)C2CCCN2C(=O)NC2CCCCC2)s1` (stereo unspecified), the cell number change is -4.45%. In addition, under setting [1], the AC50 was 29.1 µM [falling, partial curve].

For the compound `COc1ccc(-n2c(SCC(=O)C(C)(C)C)nc3c(sc(=S)n3-c3ccccc3)c2=O)c(OC)c1`, the cell number change is 104%. Moreover, the AC50 under setting [2] is 29.1 µM [rising, single point]. Besides, the AC50 under setting [1] was 7.31 µM [rising, partial curve].

`Cc1cc(S(=O)(=O)N2CCN=C2c2ccccc2)ccc1F`: the cell number change is 45.6%. Under setting [2], the AC50 is 10.3 µM [rising, partial curve, poor fit].

On to `Cc1cc(C)n2cc(CSc3nnc(SCc4cn5c(C)cc(C)nc5n4)s3)nc2n1`, for which the cell number change amounted to 8.91%.

On to `Nc1nccnc1C(=O)OCC(=O)N1CCN(S(=O)(=O)c2ccc(Cl)cc2)CC1`, for which the cell number change turned out to be 26%. The AC50 under setting [1] is 20.6 µM [rising, partial curve].

As for `COc1ccc(C(C(=O)NC2CCCCC2)N(CC2CCCO2)C(=O)CNC(=O)c2ccco2)cc1` (stereo unspecified), the cell number change worked out at 36.5%. Besides, the AC50 under setting [1] is 6.51 µM [rising, single point].

Regarding `Cc1ccc(C(=O)CCNc2ccc(Br)cc2)o1`, the cell number change was found to be 85.5%. For the same compound, the AC50 under setting [2] was 20.6 µM [rising, single point].

With `Cc1cccn2c(=O)c3cc(C(=O)NCCC4=CCCCC4)n(C)c3nc12`, the AC50 under setting [1] was 11.6 µM [falling, partial curve].

Turning to `CSc1nnc(NC(=O)c2ccc3c(c2)OCO3)s1`, the cell number change was found to be 27.2%. Under setting [1], the AC50 was 2.91 µM [rising, full curve].

Turning to `CCCc1cc(=O)[nH]c2nnc(SCC(=O)Nc3cc(C)on3)n12`, the cell number change is -5.22%.

With `Cc1ccc(NC(C(N)=O)c2c(C)[nH]c(=O)[nH]c2=O)cc1` (stereo unspecified), the cell number change is -1.98%.

On to `COc1ccc(-c2nc(CSCC(=O)NCCC3=CCCCC3)c(C)o2)cc1OC`, for which the cell number change was -1.31%. Further, the AC50 under setting [1] was 8.2 µM [falling, full curve, poor fit].

In the case of `CC(Oc1ccc(Cl)cc1)C(=O)N1CCN(C(=O)c2ccco2)CC1` (stereo unspecified), the cell number change amounted to 16%. Moreover, the AC50 under setting [2] is 0.461 µM [falling, single point]. Further, the AC50 under setting [1] was 0.461 µM [falling, single point].

For the compound `N=C(N)c1ccc(/C=C/c2ccc(C(=N)N)cc2O)cc1`, the cell number change was -15.7%.

On to `Cc1cccc(OCc2nnc(SCC(=O)NC3CCCCC3)n2C)c1`, for which the cell number change was -0.901%. Moreover, the AC50 under setting [1] is 18.4 µM [rising, partial curve, poor fit].

Regarding `CC(CC(=O)O)CC(=O)Nc1cc([N+](=O)[O-])ccc1O` (stereo unspecified), the cell number change came to 24.4%. For the same compound, the AC50 under setting [2] was 0.517 µM [falling, single point]. The AC50 under setting [1] is 0.58 µM [falling, single point].

On to `CN1CCN(C(=O)CN2C(=O)COc3ccc(S(=O)(=O)N4CCOCC4)cc32)CC1`, for which the cell number change is 31.3%. In addition, under setting [2], the AC50 was 7.31 µM [rising, partial curve].

Consider `CC1=C/C(=C(\c2ccc(O)c(C)c2)c2ccccc2S(=O)(=O)O)C=CC1=O`, for which the cell number change is 10.8%. In addition, under setting [2], the AC50 was 0.146 µM [falling, full curve, poor fit].

With `CCn1c(CC(=O)Nc2ccccc2F)nnc1SCC(=O)NC1CCCCC1`, the cell number change was -7.62%.

With `N#Cc1cn(Cc2ccccc2)c2ccccc12`, the AC50 under setting [1] is 1.64 µM [falling, partial curve].

Turning to `CNC(=O)C1CCN(C(=O)c2ccc(-c3ccccc3)cc2)CC1`, the cell number change came to 33%. Under setting [2], the AC50 was 1.03 µM [rising, full curve, poor fit].

On to `NS(=O)(=O)c1ccc(CNC(=O)c2cc(-c3ccccc3)nc3ccccc23)cc1`, for which the cell number change is -35.1%. Further, the AC50 under setting [2] was 18.4 µM [falling, single point]. Moreover, under setting [1], the AC50 is 29.1 µM [falling, single point].

For the compound `O=C(NCc1cn2ccsc2n1)c1c(F)cccc1Cl`, the cell number change worked out at 39.4%. The AC50 under setting [2] was 29.1 µM [rising, single point]. For the same compound, under setting [1], the AC50 is 13 µM [rising, partial curve].

Take `CN(C)c1oc(-c2ccccc2Cl)nc1S(=O)(=O)c1ccccc1`: the cell number change worked out at 16.1%. The AC50 under setting [1] is 0.00411 µM [rising, full curve, poor fit].

As for `Cc1ccc(Cn2c(C3CCCN3c3nc(C)cs3)nc3cc(C(F)(F)F)ccc32)cc1` (stereo unspecified), the cell number change was determined as 15.9%. For the same compound, the half-maximal activity concentration (AC50) under setting [1] was 10.3 µM [rising, partial curve].

Consider `CC(C)c1ccc(S(=O)(=O)c2cnc(=S)[nH]c2N)cc1`, for which the cell number change is -2.13%.

As to `Cc1ccc(S(=O)(=O)NCc2ccc(C(=O)N3CCN(c4ccccn4)CC3)cc2)cc1`, the cell number change is 7.93%. Moreover, the AC50 under setting [1] is 4.11 µM [rising, full curve, poor fit].

With `COc1ccc(OC)c(NC(=O)C2CC(=O)n3ncnc3N2)c1` (stereo unspecified), the cell number change is -23%.

Consider `C/C(=N\NC(=O)OC(C)(C)C)c1ccc[nH]1`, for which the cell number change came to 14.6%.

Consider `Cc1ccc(S(=O)(=O)/C(C#N)=C/c2c(N3CC(C)OC(C)C3)nc3c(C)cccn3c2=O)cc1` (stereo unspecified), for which the cell number change was 60.4%. Moreover, the AC50 under setting [2] was 23.1 µM [rising, single point]. Moreover, under setting [1], the AC50 is 1.46 µM [rising, partial curve].

A word on the AC50: it is the midpoint of the concentration-response curve, whichever way the signal moves.
